# Patent USRE42930E1 (Bristol-Myers Squibb Company, priority 2006, dated 2011)
# Assay: general procedure: Fmoc solid-phase peptide synthesis; H-Cys(4-methoxytrityl)-2-chlorotrityl-resin; PyBOP
# Conditions: conjugation step, analytical HPLC
substance,measurement,value
"(S)-2-(4-((2-amino-4-oxo-3,4-dihydropteridin-6-yl)methylamino)benzamido)-5-((S)-3-carboxy-1-((S)-1-((S)-3-carboxy-1-((R)-1-carboxy-2-(2-(2-((2-((1S,3S,7S,10R,11S,12S,16R)-7,11-dihydroxy-8,8,10,12-tetramethyl-3-((E)-1-(2-methylthiazol-4-yl)prop-1-en-2-yl)-5,9-dioxo-4-oxa-17-aza-bicyclo[14.1.0]heptadecan-17-yl)ethoxy)carbonyloxy)ethyl)disulfanyl)ethylamino)-1-oxopropan-2-ylamino)-5-guanidino-1-oxopentan-2-ylamino)-1-oxopropan-2-ylamino)-5-oxopentanoic acid",final HPLC purity,>98%
